The supplement of paper PMC10849652
This is one part of the list.

By UniProt entry, the sequences of proteins in these tests, tags left out. Where a name states a change or a piece, a line headed by the entry shows the natural chain unless it says otherwise.
UniProt P49748: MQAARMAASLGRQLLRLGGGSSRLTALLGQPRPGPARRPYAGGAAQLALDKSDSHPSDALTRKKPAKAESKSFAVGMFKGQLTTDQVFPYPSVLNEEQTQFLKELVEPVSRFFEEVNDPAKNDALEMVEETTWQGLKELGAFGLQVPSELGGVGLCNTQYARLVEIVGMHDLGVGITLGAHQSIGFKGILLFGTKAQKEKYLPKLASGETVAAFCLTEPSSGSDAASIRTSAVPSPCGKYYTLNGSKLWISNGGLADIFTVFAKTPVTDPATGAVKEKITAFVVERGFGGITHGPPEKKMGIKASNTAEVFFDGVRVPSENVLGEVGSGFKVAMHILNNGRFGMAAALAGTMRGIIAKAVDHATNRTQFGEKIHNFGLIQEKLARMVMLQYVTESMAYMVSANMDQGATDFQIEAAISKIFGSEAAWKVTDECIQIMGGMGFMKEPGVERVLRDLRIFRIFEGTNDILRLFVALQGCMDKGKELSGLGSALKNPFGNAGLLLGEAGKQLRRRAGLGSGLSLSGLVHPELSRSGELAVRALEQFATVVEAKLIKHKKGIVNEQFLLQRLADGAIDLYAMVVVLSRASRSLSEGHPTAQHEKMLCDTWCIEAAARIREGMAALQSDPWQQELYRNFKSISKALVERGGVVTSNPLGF
UniProt Q9BWD1: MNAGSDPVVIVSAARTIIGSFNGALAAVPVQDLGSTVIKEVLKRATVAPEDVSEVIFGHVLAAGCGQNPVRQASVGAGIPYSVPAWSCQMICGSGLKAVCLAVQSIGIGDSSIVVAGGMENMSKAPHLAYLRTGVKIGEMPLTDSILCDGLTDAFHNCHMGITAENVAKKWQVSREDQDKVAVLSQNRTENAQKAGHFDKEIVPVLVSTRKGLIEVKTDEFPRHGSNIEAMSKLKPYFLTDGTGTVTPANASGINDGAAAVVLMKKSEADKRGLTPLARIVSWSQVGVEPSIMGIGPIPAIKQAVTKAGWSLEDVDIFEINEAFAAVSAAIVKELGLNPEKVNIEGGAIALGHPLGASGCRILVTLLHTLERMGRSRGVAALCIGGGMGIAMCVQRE
UniProt Q9NYB9: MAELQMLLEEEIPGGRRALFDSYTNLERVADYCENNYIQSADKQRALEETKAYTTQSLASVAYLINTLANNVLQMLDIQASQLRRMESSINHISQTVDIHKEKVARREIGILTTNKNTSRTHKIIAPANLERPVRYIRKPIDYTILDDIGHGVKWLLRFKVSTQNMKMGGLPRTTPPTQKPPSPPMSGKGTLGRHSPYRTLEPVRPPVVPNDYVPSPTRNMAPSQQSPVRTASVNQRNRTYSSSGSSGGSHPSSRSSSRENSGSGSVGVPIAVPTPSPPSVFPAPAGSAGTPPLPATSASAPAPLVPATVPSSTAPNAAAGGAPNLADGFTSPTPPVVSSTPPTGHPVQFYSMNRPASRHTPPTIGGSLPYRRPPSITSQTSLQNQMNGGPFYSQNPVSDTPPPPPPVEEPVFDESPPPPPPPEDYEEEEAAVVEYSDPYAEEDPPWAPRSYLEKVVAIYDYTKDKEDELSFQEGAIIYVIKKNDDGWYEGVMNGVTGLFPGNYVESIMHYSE
UniProt Q86TW2: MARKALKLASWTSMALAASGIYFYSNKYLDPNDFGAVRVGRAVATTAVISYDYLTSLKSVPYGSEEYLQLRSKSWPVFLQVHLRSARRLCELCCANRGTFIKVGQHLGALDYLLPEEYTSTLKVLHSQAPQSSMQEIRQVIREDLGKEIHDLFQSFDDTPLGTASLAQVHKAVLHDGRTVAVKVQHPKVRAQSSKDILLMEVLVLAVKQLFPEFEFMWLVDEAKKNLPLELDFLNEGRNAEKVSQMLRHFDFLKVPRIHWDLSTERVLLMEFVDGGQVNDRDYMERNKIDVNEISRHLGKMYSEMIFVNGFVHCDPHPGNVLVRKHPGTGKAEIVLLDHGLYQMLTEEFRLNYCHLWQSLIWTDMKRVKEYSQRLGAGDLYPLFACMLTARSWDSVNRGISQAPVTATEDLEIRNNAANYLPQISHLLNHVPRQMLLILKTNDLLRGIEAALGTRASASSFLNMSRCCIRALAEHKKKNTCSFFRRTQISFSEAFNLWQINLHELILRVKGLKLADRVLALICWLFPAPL
UniProt P09110: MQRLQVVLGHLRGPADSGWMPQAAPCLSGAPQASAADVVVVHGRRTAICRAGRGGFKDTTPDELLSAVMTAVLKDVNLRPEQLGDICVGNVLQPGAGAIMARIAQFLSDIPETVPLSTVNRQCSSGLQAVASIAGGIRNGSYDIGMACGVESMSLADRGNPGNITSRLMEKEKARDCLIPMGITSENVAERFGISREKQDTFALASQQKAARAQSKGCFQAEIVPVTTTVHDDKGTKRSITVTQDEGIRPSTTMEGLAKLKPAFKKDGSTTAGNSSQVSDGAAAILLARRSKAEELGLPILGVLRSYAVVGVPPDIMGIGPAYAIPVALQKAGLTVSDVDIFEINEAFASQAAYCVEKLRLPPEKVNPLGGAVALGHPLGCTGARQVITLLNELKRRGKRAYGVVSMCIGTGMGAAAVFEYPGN
UniProt Q15067: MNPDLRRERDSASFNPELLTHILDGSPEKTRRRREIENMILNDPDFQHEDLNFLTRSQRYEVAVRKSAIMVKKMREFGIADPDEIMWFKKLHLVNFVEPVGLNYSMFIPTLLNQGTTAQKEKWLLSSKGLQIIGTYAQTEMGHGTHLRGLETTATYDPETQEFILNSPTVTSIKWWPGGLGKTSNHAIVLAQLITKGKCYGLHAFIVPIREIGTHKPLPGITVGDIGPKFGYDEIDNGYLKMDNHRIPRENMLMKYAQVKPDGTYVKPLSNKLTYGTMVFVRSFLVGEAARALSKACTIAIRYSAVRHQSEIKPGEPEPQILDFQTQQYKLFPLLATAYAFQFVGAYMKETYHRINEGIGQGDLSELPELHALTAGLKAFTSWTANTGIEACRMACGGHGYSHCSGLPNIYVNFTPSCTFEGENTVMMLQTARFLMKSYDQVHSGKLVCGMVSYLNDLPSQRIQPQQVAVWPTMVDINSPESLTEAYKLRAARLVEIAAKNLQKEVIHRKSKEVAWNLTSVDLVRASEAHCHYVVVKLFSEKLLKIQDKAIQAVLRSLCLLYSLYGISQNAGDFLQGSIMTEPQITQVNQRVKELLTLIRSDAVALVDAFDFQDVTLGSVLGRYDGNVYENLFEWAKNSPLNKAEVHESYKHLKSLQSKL
UniProt Q9GZN1, whole entry, looked up: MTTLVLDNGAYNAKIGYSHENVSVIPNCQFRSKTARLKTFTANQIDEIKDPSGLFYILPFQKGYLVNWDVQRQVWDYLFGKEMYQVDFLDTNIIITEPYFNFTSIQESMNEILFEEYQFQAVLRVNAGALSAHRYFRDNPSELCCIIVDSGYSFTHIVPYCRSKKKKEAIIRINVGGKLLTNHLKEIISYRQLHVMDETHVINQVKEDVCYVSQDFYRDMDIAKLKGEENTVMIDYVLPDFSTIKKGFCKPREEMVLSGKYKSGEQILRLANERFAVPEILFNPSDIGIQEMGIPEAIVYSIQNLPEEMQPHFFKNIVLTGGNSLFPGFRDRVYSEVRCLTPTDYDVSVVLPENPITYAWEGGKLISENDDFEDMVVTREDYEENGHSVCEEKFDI
UniProt Q9H7C9: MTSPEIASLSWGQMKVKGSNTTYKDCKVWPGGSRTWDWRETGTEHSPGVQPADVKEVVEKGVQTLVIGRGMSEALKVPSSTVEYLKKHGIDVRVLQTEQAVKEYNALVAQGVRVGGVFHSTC
UniProt Q5T8D3: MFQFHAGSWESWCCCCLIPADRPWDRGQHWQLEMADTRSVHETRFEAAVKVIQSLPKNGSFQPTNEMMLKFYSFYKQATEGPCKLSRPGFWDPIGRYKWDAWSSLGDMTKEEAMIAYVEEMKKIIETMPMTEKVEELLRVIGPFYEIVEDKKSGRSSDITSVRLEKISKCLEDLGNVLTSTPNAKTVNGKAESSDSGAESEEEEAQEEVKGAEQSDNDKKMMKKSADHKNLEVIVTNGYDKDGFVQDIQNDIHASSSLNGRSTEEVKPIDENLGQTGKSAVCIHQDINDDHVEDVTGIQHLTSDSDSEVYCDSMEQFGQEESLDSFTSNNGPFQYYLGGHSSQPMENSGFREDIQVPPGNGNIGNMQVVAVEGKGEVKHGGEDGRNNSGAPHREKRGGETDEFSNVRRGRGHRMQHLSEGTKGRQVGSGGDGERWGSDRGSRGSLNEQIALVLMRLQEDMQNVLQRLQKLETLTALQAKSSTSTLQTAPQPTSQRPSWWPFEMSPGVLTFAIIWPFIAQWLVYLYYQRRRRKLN
UniProt Q96EY9: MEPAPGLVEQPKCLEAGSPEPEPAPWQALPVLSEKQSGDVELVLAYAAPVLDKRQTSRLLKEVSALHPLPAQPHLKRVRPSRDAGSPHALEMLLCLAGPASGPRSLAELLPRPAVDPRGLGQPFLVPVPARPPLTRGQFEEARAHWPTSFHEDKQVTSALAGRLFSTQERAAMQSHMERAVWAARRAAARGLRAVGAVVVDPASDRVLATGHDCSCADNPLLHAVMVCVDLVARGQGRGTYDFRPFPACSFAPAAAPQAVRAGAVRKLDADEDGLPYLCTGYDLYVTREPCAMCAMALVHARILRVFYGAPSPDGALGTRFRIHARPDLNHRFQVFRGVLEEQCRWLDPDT
UniProt Q9NUT2: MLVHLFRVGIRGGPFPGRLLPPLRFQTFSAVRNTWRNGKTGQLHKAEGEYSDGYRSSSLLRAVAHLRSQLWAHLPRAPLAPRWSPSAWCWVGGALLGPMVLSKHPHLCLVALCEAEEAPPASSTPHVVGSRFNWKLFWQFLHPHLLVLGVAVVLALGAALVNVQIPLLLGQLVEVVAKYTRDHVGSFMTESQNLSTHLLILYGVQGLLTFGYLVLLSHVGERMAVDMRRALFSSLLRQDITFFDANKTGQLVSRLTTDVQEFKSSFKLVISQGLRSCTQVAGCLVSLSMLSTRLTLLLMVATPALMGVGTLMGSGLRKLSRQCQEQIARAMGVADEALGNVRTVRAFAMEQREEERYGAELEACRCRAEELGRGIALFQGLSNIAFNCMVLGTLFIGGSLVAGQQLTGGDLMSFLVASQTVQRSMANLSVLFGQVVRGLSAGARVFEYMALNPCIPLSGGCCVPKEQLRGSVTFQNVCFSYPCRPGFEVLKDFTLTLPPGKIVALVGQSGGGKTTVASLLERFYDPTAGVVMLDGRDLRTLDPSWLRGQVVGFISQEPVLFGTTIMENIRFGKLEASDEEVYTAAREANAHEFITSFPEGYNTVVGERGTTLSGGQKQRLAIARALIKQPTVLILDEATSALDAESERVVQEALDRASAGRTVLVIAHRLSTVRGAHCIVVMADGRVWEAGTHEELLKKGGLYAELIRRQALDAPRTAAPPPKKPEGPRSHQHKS
UniProt Q9H3P7: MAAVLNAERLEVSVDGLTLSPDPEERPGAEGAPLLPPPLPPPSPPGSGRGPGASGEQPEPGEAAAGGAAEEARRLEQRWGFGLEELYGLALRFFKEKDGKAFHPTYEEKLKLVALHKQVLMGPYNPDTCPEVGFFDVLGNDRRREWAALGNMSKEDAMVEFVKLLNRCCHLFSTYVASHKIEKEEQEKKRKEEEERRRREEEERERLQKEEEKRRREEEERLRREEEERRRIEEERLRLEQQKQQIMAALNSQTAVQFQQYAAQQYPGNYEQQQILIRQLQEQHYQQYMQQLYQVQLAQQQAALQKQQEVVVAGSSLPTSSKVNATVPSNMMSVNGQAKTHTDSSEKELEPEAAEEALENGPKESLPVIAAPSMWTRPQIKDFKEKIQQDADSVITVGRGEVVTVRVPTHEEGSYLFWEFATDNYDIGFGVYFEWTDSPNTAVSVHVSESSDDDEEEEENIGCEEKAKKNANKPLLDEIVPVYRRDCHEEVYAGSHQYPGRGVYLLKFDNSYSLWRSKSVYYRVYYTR

Experiments:
Test in all cases: log2 fold change, soluble protein after heating vs DMSO (PISA); higher = thermal stabilisation; K562 cells, 10 uM, 30 min; active = over 0.2 and 3.5 SD of the protein, either way, in both replicates (recomputed)
saracatinib = compound: CN1CCN(CCOc2cc(OC3CCOCC3)c3c(Nc4c(Cl)ccc5c4OCO5)ncnc3c2)CC1 [saracatinib]
Outline: (§1)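 Quantification of soluble protein used TMTpro 16plex LC-MS/MS, with channel sums equalised. Samples were the supernatant after 21,000xg for 90 min of pooled aliquots from K562 cells (2×10^6 cells/mL) treated with 10 μM compound for 30 min, heated for 3 min over 48°C-58°C, and extracted in PBS with 0.5% NP-40 at 4°C. Values, from duplicates, describe thermal stability against control samples on a log2 fold-change scale.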

sotrastaurin = compound: CN1CCN(c2nc(C3=C(c4c[nH]c5ccccc45)C(=O)NC3=O)c3ccccc3n2)CC1 [sotrastaurin]
Outline: as §1

Tubastatin A = compound: CN1CCc2c(c3ccccc3n2Cc2ccc(C(=O)NO)cc2)C1 [Tubastatin A]
Outline: as §1

[1] = compound: CNC(=O)C1=CC=CC=C1NC2=NC(=NC=C2Cl)NC3=C(C=C(C=C3)N4CCOCC4)OC
Outline: as §1

defactinib = compound: CNC(=O)c1ccc(Nc2ncc(C(F)(F)F)c(NCc3nccnc3N(C)S(C)(=O)=O)n2)cc1 [defactinib]
Outline: as §1

rucaparib = compound: CNCc1ccc(-c2[nH]c3cc(F)cc4c3c2CCNC4=O)cc1 [rucaparib]
Outline: as §1

[2] = compound: CNc1nc(-c2ccc3c(N)n[nH]c3c2)cc(N2C[C@@H](C(=O)NC3CCCCC3)CC[C@H]2C)n1
Outline: as §1

encorafenib = compound: COC(=O)N[C@@H](C)CNc1nccc(-c2cn(C(C)C)nc2-c2cc(Cl)cc(NS(C)(=O)=O)c2F)n1 [encorafenib]
Outline: as §1

[3] = compound: COC(=O)[C@H](CCSC)NC(=O)C1=C(C=C(C=C1)NC[C@H](CS)N)C2=CC=CC=C2
Outline: as §1

[4] = compound: COC1=CC=C(C=C1)CN2C=CC3=C2C=C(C=C3)C(=O)NO
Outline: as §1

filanesib = compound: CON(C)C(=O)N1N=C(c2cc(F)ccc2F)S[C@@]1(CCCN)c1ccccc1 [filanesib]
Outline: as §1

zotarolimus = compound: CO[C@H]1C[C@@H]2CC[C@@H](C)[C@@](O)(O2)C(=O)C(=O)N2CCCC[C@H]2C(=O)O[C@H]([C@H](C)C[C@@H]2CC[C@H](n3cnnn3)[C@H](OC)C2)CC(=O)[C@H](C)/C=C(\C)[C@@H](O)[C@@H](OC)C(=O)[C@H](C)C[C@H](C)/C=C/C=C/C=C/1C [zotarolimus]
Outline: as §1

idasanutlin = compound: COc1cc(C(=O)O)ccc1NC(=O)[C@@H]1N[C@@H](CC(C)(C)C)[C@](C#N)(c2ccc(Cl)cc2F)[C@H]1c1cccc(Cl)c1F [idasanutlin]
Outline: as §1

alisertib = compound: COc1cc(Nc2ncc3c(n2)-c2ccc(Cl)cc2C(c2c(F)cccc2OC)=NC3)ccc1C(=O)O [alisertib]
Outline: as §1

[5] = compound: COc1cc2nc(-c3cc(F)ccc3O)nc(N[C@@H]3CNC[C@H]3C(C)(C)O)c2cc1OC
Outline: as §1

gefitinib = compound: COc1cc2ncnc(Nc3ccc(F)c(Cl)c3)c2cc1OCCCN1CCOCC1 [gefitinib]
Outline: as §1

[6] = compound: COc1cccc2cc(-c3nc([C@H]4CC[C@H](C(=O)O)CC4)n4ncnc(N)c34)[nH]c12
Outline: as §1

lapatinib = compound: CS(=O)(=O)CCNCc1ccc(-c2ccc3ncnc(Nc4ccc(OCc5cccc(F)c5)c(Cl)c4)c3c2)o1 [lapatinib]
Outline: as §1

pictilisib = compound: CS(=O)(=O)N1CCN(Cc2cc3nc(-c4cccc5[nH]ncc45)nc(N4CCOCC4)c3s2)CC1 [pictilisib]
Outline: as §1

alvocidib = compound: CN1CC[C@H](c2c(O)cc(O)c3c(=O)cc(-c4ccccc4Cl)oc23)[C@H](O)C1 [alvocidib]
Outline: as §1

Measured: log2 fold change

ACADVL isoform 3 (UniProt P49748)
inactive: saracatinib 0.027 | sotrastaurin 0.056 | Tubastatin A -0.028 | [1] -0.022 | defactinib -0.011 | rucaparib -0.007 | [2] 0.008 | encorafenib -0.021 | [3] -0.001 | [4] 0 | filanesib -0.069 | zotarolimus 0.019 | idasanutlin -0.04 | alisertib -0.031 | [5] -0.089 | gefitinib -0.019 | [6] 0.025 | lapatinib -0.12 | pictilisib 0.093

ABCE1 (UniProt H0Y990)
inactive: saracatinib 0.036 | sotrastaurin 0.081 | alvocidib 0.02 | Tubastatin A -0.075 | [1] -0.008 | defactinib -0.038 | rucaparib -0.244 | [2] -0.05 | encorafenib -0.004 | [3] 0.092 | filanesib -0.085 | zotarolimus -0.108 | idasanutlin -0.201 | alisertib -0.145 | [5] 0.012 | gefitinib -0.027 | [6] 0.03 | lapatinib -0.05 | pictilisib -0.136

ACAT1, A0A5F9ZHJ0
inactive: saracatinib 0.068 | sotrastaurin 0.133 | alvocidib 0.142 | Tubastatin A -0.025 | rucaparib -0.386 | [2] -0.093 | encorafenib -0.051 | [4] -0.205 | filanesib 0.086 | zotarolimus -0.144 | idasanutlin -0.014 | alisertib -0.133 | [5] 0.103 | gefitinib 0.1 | [6] 0.059 | lapatinib 0.037 | pictilisib 0.003

ACAT2 (UniProt Q9BWD1)
inactive: saracatinib -0.013 | sotrastaurin 0.053 | alvocidib -0.039 | Tubastatin A -0.034 | [1] -0.018 | defactinib -0.02 | rucaparib -0.052 | [2] -0.016 | encorafenib -0.016 | [3] -0.016 | [4] 0.051 | filanesib -0.027 | zotarolimus 0.04 | idasanutlin 0.031 | alisertib -0.116 | [5] 0.037 | gefitinib 0.017 | [6] 0.058 | lapatinib 0 | pictilisib 0.028

ACTN1 (UniProt H9KV75)
inactive: saracatinib -0.025 | sotrastaurin 0.011 | alvocidib 0.012 | Tubastatin A 0.313 | [1] -0.271 | defactinib -0.103 | rucaparib -0.106 | [2] -0.101 | encorafenib -0.004 | [3] -0.142 | filanesib -0.114 | zotarolimus 0.154 | idasanutlin -0.181 | alisertib 0.155 | [5] 0.258 | gefitinib -0.07 | [6] 0.02 | lapatinib -0.009

ABI2 (UniProt Q9NYB9)
inactive: saracatinib -0.013 | sotrastaurin -0.037 | alvocidib -0.098 | Tubastatin A 0.008 | [1] 0.038 | defactinib -0.12 | rucaparib 0.081 | [2] 0.111 | encorafenib 0.07 | [3] 0.05 | [4] -0.079 | filanesib -0.042 | zotarolimus 0.026 | idasanutlin -0.059 | alisertib -0.077 | [5] -0.045 | gefitinib 0.03 | [6] -0.002 | lapatinib 0.004 | pictilisib 0.079

ADCK1 (UniProt Q86TW2)
inactive: saracatinib -0.098 | sotrastaurin 0.084 | alvocidib -0.091 | Tubastatin A -0.094 | [1] -0.133 | defactinib 0.006 | [2] -0.081 | [3] -0.093 | [4] 0.072 | filanesib -0.077 | zotarolimus -0.139 | alisertib -0.059 | [5] 0.058 | gefitinib -0.044 | [6] 0.175 | lapatinib 0.08

ACAA1 (UniProt P09110)
inactive: saracatinib 0.051 | sotrastaurin -0.025 | alvocidib -0.027 | Tubastatin A 0.011 | [1] 0.004 | defactinib -0.006 | rucaparib -0.013 | [2] -0.034 | encorafenib -0.028 | [3] -0.021 | [4] 0.045 | filanesib -0.047 | zotarolimus -0.03 | idasanutlin -0.039 | alisertib -0.092 | [5] -0.025 | gefitinib -0.007 | [6] 0.02 | lapatinib 0.007 | pictilisib -0.003

ADAMTSL4 isoform 3 (UniProt Q6UY14)
inactive: saracatinib -0.066 | sotrastaurin -0.05 | alvocidib 0.097 | Tubastatin A 0.138 | [1] -0.049 | defactinib -0.056 | rucaparib 0.06 | [2] 0.018 | encorafenib 0.055 | [3] 0.079 | [4] -0.089 | filanesib 0.162 | zotarolimus -0.069 | idasanutlin 0.062 | alisertib -0.042 | [5] -0.121 | gefitinib 0.032 | [6] 0.089 | lapatinib 0.088 | pictilisib 0.24

ACOX1 isoform 2 (UniProt Q15067)
inactive: saracatinib 0.04 | sotrastaurin 0.041 | alvocidib -0.048 | Tubastatin A 0.019 | [1] 0.038 | defactinib 0.004 | rucaparib -0.038 | [2] -0.004 | encorafenib -0.031 | [3] 0.052 | [4] 0.014 | filanesib -0.103 | zotarolimus -0.023 | idasanutlin -0.033 | alisertib -0.013 | [5] 0.034 | gefitinib 0.049 | [6] 0.077 | lapatinib -0.013 | pictilisib 0.057

ACTR6 (UniProt Q9GZN1)
inactive: saracatinib 0.054 | sotrastaurin -0.086 | alvocidib -0.005 | Tubastatin A -0.067 | [1] 0.131 | defactinib -0.09 | rucaparib 0.009 | [2] -0.046 | encorafenib -0.005 | [3] -0.031 | [4] -0.014 | filanesib 0.058 | zotarolimus 0.03 | idasanutlin 0.008 | alisertib 0.056 | [5] 0.054 | gefitinib 0.028 | [6] -0.008 | lapatinib 0.024 | pictilisib 0.067

AAMDC (UniProt Q9H7C9)
inactive: saracatinib 0.034 | sotrastaurin 0.026 | alvocidib -0.033 | Tubastatin A 0.032 | [1] 0.009 | defactinib 0 | rucaparib -0.056 | [2] -0.007 | encorafenib 0.004 | [3] -0.007 | [4] -0.009 | filanesib -0.029 | zotarolimus 0.02 | idasanutlin -0.069 | alisertib -0.047 | [5] 0.013 | gefitinib -0.033 | [6] 0.033 | lapatinib -0.043 | pictilisib 0.068

ACBD5 (UniProt Q5T8D3)
inactive: saracatinib -0.19 | sotrastaurin 0.036 | alvocidib 0.059 | Tubastatin A -0.004 | [1] 0.007 | defactinib 0.073 | [2] 0.046 | [3] -0.068 | [4] 0.062 | filanesib -0.008 | zotarolimus 0.176 | idasanutlin 0.175 | alisertib -0.081 | [5] -0.171 | [6] -0.079 | lapatinib -0.029 | pictilisib -0.002

ADAT3 (UniProt Q96EY9)
inactive: saracatinib 0.063 | sotrastaurin 0.122 | alvocidib -0.047 | Tubastatin A -0.005 | [1] -0.05 | defactinib 0.008 | rucaparib 0.021 | [2] 0.046 | encorafenib -0.043 | [3] 0.007 | [4] -0.036 | filanesib 0.1 | zotarolimus -0.009 | idasanutlin 0.004 | alisertib -0.219 | [5] 0.088 | gefitinib -0.043 | [6] 0.029 | lapatinib -0.042 | pictilisib 0.175

ABCB8 (UniProt Q9NUT2)
inactive: saracatinib -0.017 | sotrastaurin 0.003 | alvocidib -0.046 | Tubastatin A -0.062 | [1] -0.033 | defactinib -0.024 | rucaparib -0.025 | [2] 0.064 | encorafenib 0.04 | [3] -0.028 | [4] -0.095 | filanesib -0.081 | zotarolimus 0.001 | idasanutlin -0.032 | alisertib 0.143 | [5] 0.117 | gefitinib 0.061 | [6] 0.041 | lapatinib 0.043 | pictilisib 0.002

ACTG1 (UniProt K7EM38)
inactive: saracatinib -0.161 | sotrastaurin 0.045 | alvocidib -0.157 | Tubastatin A 0.098 | defactinib -0.25 | rucaparib -0.152 | [2] 0.071 | encorafenib -0.122 | [3] -0.161 | [4] -0.011 | filanesib 0.005 | zotarolimus 0.112 | idasanutlin -0.487 | [5] 0.409 | lapatinib -0.045 | pictilisib -0.255

Quoted from above (two entries):
AAMDC (UniProt Q9H7C9)
inactive: saracatinib 0.034 | sotrastaurin 0.026 | alvocidib -0.033 | Tubastatin A 0.032 | [1] 0.009 | defactinib 0 | rucaparib -0.056 | [2] -0.007 | encorafenib 0.004 | [3] -0.007 | [4] -0.009 | filanesib -0.029 | zotarolimus 0.02 | idasanutlin -0.069 | alisertib -0.047 | [5] 0.013 | gefitinib -0.033 | [6] 0.033 | lapatinib -0.043 | pictilisib 0.068

ACBD5 (UniProt Q5T8D3)
inactive: saracatinib -0.19 | sotrastaurin 0.036 | alvocidib 0.059 | Tubastatin A -0.004 | [1] 0.007 | defactinib 0.073 | [2] 0.046 | [3] -0.068 | [4] 0.062 | filanesib -0.008 | zotarolimus 0.176 | idasanutlin 0.175 | alisertib -0.081 | [5] -0.171 | [6] -0.079 | lapatinib -0.029 | pictilisib -0.002

Continuation:

ACBD3 (UniProt Q9H3P7)
inactive: saracatinib 0.006 | sotrastaurin 0.022 | alvocidib -0.098 | Tubastatin A -0.001 | [1] -0.015 | defactinib -0.064 | rucaparib 0.057 | [2] 0.068 | encorafenib -0.021 | [3] -0.098 | [4] 0.031 | filanesib 0.024 | zotarolimus 0.022 | idasanutlin -0.151 | alisertib -0.063 | [5] -0.016 | gefitinib 0.104 | [6] 0.012 | lapatinib -0.005 | pictilisib 0.054
